From the supplement of paper PMC11006884
The list shows a part of the results, in another mix than the full data.

Protein sequences, listed by entry. Tags and fused reporters are not part of them. Lines headed by an entry give the natural chain unless they say otherwise; changes in a name come on top.
UniProt Q86U28: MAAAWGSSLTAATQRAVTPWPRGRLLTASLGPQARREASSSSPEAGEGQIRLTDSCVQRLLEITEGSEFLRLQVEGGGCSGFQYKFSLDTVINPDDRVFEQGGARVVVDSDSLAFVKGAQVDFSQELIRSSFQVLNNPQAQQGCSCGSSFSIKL
UniProt Q86VP6: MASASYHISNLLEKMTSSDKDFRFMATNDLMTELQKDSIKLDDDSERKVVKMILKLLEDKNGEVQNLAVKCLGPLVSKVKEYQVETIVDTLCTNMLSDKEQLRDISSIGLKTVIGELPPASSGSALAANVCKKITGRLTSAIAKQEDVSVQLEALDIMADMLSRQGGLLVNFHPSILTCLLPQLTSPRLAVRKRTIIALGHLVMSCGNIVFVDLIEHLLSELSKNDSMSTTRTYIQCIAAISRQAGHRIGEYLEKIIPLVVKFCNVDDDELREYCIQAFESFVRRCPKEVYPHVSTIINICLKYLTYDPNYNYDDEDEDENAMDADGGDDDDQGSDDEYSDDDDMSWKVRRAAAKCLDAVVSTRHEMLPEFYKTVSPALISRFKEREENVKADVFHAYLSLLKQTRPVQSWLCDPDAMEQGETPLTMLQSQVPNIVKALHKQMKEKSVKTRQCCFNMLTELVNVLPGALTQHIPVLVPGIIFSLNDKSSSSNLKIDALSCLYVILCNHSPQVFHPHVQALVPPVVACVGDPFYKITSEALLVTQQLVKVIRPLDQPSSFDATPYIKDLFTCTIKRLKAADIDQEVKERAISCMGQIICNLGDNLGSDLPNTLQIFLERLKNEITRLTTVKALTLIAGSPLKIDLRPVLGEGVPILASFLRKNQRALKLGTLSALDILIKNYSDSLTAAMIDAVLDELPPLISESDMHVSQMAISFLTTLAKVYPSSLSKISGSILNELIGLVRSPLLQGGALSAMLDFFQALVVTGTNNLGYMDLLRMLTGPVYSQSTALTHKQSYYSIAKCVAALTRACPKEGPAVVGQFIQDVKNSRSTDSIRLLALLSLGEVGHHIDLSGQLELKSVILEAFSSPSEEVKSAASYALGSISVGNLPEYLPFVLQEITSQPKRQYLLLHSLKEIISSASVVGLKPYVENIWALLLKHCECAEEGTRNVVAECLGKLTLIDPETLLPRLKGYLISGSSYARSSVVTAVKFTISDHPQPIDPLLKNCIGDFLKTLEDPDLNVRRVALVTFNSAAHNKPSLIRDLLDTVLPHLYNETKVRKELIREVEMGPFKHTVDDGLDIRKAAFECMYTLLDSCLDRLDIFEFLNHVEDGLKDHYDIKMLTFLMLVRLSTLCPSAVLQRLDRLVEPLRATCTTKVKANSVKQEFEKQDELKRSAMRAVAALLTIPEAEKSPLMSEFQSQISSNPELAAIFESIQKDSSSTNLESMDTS
UniProt Q7Z6Z7, whole entry, looked up: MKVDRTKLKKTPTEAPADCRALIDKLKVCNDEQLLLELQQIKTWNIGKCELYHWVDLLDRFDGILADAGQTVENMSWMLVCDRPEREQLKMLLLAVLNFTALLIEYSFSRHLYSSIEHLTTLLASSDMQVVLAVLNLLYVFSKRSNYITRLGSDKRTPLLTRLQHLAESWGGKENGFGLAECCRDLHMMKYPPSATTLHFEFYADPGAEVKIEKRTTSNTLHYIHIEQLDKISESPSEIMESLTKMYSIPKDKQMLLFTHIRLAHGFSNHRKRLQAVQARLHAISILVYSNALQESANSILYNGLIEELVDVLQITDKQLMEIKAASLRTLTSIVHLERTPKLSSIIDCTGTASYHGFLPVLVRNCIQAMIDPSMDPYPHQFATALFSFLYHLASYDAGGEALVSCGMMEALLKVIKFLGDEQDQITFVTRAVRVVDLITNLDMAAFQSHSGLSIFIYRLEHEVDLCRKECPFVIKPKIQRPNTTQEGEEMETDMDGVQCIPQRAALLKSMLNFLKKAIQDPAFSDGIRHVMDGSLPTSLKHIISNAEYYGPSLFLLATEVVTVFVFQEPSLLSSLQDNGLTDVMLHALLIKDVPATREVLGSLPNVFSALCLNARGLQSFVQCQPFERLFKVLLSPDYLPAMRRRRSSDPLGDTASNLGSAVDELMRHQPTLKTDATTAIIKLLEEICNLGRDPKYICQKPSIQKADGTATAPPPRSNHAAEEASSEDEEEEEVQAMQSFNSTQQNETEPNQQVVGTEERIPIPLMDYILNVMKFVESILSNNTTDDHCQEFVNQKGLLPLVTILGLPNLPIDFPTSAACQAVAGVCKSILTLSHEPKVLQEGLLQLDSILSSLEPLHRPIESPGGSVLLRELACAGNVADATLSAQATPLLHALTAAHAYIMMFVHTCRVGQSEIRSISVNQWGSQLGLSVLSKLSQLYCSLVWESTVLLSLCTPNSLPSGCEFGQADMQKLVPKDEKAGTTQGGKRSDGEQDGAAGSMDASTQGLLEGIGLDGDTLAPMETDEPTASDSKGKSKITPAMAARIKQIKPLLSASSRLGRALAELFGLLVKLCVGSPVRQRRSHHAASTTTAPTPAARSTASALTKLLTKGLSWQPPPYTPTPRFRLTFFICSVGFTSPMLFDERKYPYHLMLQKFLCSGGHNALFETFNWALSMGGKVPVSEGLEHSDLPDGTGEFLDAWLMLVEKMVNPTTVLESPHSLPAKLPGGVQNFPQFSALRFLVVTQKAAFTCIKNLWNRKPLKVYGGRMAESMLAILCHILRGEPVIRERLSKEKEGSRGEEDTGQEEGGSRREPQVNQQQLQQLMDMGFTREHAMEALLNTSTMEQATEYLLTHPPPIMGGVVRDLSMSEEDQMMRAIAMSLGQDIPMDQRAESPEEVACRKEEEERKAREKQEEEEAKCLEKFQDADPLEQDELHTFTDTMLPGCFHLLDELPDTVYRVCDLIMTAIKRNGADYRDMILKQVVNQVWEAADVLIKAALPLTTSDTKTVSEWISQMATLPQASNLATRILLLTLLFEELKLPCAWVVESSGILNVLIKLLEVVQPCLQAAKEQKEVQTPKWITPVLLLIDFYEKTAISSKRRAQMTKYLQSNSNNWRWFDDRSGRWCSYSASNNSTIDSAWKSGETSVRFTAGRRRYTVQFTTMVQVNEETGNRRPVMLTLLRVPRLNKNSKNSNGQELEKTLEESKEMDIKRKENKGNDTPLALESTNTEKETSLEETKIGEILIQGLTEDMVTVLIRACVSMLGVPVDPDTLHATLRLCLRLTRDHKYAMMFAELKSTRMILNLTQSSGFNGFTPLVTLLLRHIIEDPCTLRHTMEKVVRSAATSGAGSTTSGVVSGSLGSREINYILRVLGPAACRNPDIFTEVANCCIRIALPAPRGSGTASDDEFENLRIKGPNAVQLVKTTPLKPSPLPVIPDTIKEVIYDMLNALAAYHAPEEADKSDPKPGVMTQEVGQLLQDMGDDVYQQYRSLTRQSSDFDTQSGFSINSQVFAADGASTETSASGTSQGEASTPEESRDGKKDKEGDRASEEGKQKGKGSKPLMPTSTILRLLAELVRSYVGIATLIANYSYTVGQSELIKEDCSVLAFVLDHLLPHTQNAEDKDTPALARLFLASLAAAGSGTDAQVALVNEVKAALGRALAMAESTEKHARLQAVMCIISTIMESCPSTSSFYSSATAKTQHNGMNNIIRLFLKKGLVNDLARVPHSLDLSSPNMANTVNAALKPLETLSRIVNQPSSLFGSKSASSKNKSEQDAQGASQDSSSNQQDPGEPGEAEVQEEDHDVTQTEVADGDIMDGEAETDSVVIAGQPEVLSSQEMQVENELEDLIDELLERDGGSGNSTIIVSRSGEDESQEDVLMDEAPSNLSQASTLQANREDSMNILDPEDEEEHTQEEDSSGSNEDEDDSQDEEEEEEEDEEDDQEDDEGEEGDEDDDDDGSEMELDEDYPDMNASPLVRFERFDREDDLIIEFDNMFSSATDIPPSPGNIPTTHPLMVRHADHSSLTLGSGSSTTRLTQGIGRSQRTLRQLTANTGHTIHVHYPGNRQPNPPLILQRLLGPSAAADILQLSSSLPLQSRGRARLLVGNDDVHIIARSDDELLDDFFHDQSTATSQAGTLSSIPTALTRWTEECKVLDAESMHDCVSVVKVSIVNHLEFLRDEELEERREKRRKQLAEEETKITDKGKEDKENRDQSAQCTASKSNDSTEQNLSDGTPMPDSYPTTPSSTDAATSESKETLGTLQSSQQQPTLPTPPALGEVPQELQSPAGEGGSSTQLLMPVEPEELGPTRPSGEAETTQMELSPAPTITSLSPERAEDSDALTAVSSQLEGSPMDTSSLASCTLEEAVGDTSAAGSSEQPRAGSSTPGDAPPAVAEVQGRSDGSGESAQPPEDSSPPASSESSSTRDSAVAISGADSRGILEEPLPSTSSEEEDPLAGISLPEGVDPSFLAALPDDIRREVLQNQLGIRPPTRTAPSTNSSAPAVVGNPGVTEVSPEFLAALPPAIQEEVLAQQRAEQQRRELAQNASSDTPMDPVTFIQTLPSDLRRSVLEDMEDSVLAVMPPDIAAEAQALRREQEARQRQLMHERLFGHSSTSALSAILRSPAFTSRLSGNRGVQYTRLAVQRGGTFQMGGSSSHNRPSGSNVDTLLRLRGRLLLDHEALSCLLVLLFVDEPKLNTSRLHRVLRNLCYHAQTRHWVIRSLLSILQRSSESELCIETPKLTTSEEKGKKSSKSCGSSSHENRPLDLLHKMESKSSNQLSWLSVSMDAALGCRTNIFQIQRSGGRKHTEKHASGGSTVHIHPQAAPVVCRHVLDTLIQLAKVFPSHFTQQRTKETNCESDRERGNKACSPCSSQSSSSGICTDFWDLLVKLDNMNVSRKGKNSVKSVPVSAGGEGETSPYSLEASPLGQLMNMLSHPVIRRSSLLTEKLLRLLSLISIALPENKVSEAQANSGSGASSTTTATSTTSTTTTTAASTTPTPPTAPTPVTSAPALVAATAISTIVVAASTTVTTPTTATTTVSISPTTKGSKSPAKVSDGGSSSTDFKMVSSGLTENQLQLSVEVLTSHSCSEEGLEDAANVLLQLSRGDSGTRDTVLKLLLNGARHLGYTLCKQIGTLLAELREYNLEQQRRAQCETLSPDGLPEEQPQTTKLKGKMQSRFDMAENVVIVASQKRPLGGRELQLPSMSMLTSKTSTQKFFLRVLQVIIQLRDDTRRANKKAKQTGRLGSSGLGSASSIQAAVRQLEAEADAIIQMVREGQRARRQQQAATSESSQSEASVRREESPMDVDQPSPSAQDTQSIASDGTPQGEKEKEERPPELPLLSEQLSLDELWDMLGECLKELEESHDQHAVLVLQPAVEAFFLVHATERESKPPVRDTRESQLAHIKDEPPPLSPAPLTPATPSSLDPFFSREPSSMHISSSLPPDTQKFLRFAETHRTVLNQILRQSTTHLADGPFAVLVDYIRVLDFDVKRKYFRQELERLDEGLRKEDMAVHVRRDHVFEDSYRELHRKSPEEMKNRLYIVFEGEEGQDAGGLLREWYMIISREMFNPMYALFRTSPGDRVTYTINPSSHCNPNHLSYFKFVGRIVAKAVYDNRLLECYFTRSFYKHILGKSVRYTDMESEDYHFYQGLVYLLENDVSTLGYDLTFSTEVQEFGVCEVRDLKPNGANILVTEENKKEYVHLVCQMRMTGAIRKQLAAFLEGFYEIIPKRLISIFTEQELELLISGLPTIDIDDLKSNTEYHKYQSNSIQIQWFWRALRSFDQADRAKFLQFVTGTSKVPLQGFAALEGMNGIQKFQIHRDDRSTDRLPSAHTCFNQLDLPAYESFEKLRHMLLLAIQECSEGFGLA
UniProt Q8IZ83: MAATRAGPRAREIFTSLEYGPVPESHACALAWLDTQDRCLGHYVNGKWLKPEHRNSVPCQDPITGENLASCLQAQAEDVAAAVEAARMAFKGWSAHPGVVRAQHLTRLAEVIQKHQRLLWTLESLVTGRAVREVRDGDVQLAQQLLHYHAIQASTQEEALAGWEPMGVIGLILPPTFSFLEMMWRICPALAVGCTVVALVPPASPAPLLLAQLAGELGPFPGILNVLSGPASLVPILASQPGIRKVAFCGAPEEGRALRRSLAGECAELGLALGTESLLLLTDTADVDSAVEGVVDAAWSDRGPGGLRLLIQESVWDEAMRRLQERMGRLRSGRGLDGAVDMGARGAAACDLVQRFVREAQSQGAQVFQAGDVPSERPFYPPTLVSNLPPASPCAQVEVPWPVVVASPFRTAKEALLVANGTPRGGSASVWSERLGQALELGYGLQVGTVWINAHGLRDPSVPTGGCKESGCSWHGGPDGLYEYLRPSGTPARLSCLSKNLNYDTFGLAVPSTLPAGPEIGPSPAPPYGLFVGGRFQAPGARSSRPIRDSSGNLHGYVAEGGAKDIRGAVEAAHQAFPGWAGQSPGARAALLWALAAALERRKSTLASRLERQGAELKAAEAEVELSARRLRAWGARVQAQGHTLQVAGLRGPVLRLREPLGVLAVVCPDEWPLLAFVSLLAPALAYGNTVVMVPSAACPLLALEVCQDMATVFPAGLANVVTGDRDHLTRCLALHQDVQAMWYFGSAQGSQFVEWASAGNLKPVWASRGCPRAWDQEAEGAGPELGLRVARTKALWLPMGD

Compound: COC(=O)C#Cc1ccccc1 [methyl 3-phenylpropiolate]
Assay: log2 ratio of iodoacetamide-alkyne labeling of the cysteine site, DMSO over compound (competition); higher = stronger covalent engagement of the cysteine by the compound, active = 1 or more
Conditions: 500 µM; treatment time 1 h; system: HEK293T cell lysate
Procedure, shortened: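 The log2 competition ratio per cysteine is defined as mean reporter intensity in control channels over mean reporter intensity in compound channels. Lysate from HEK293T cells (2 mg/mL) received electrophile (500 µM) or vehicle for 1 h at ambient temperature, followed by iodoacetamide alkyne for 1 h. Samples were clicked to sCIP-TMT reagents, pooled, trypsin-digested overnight at 37 °C, streptavidin-enriched, acid-eluted and run on Orbitrap Eclipse LC-MS/MS with FAIMS, with quantification in FragPipe. Three replicates with duplicate channels were used, and any cysteine quantified in only one replicate was excluded.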

log2 ratio of iodoacetamide-alkyne labeling, active:
PARG C515 (UniProt Q86W56) 1.16
ISCA2 C144 (UniProt Q86U28) 1.59
CCDC117 C81 (UniProt Q8IWD4) 1.66

log2 ratio of iodoacetamide-alkyne labeling, inactive:
HEATR3 C173 (UniProt Q7Z4Q2) 0.137
UniProt Q7LBC6_C1212 0.571
MRPL10 C180 (UniProt Q7Z7H8) 0.204
TRMT2A C270 (UniProt Q8IZ69) 0.617
DHX37 C1026 (UniProt Q8IY37) 0.317
ANKLE2 C674 (UniProt Q86XL3) 0.639
PHF6 C242 (UniProt Q8IWS0) 0.181
CAND1 C1007 (UniProt Q86VP6) 0.188
NCAPG2 C537 (UniProt Q86XI2) 0.003
HUWE1 C3361 (UniProt Q7Z6Z7) 0.797
UniProt Q71F23_C38 0.418
DHX40 C33 (UniProt Q8IX18) 0.451
ALDH16A1 C350 (UniProt Q8IZ83) 0.0503
DHX30 C1183 (UniProt Q7L2E3) 0.0938
PHACTR4 C328 (UniProt Q8IZ21) 0.262
IRF2BP1 C280 (UniProt Q8IU81) 0.219
IRF2BP2 C505 (UniProt Q7Z5L9) 0.211
SETX C997 (UniProt Q7Z333) 0.498
WDR75 C12 (UniProt Q8IWA0) 0.0253
CHERP C246 (UniProt Q8IWX8) 0.255
THOC6 C314 (UniProt Q86W42) 0.0566
UniProt Q86Y56_C92 0.294
PHF6 C212 (UniProt Q8IWS0) -0.0802
HUWE1 C612 (UniProt Q7Z6Z7) 0.202
MICAL3 C1760 (UniProt Q7RTP6) 0.281
THNSL1 C82 (UniProt Q8IYQ7) 0.297
USP48 C145 (UniProt Q86UV5) 0.0153
FTSJ3 C197 (UniProt Q8IY81) 0.103
ERC1 C258 (UniProt Q8IUD2) 0.276
UniProt Q8IX90_C290 -0.0728
POGZ C547 (UniProt Q7Z3K3) -0.0245
CAND1 C954 (UniProt Q86VP6) 0.0799
UniProt Q7LBC6_C1448 0.222
NET1 C522 (UniProt Q7Z628) 0.439

10 neighbouring records from above, quoted:
log2 ratio of iodoacetamide-alkyne labeling, inactive:
NCAPG2 C537 (UniProt Q86XI2) 0.003
HUWE1 C3361 (UniProt Q7Z6Z7) 0.797
UniProt Q71F23_C38 0.418
DHX40 C33 (UniProt Q8IX18) 0.451
ALDH16A1 C350 (UniProt Q8IZ83) 0.0503
DHX30 C1183 (UniProt Q7L2E3) 0.0938
PHACTR4 C328 (UniProt Q8IZ21) 0.262
IRF2BP1 C280 (UniProt Q8IU81) 0.219
IRF2BP2 C505 (UniProt Q7Z5L9) 0.211
SETX C997 (UniProt Q7Z333) 0.498
